# “And” between values parts separate entries of the source, which are not always exact repeats. Identical values can stand only once. The list shows a part of the results.
# Columns and labels:
# [1] = qHTS assay for small molecule agonists of retinoid X receptor alpha signaling (AID 588544); conditions: HEK293T RXRa-UAS-bla, beta-lactamase reporter, 18 h; 530 nm emission
# Excerpt: (§1) NIH Chemical Genomics Center [NCGC] U.S. Environmental Protection Agency [EPA] National Institutes of Environmental Health Sciences [NIEHS] National Toxicology Program [NTP] NCGC Assay Overview The Retinoid X receptor (RXR), a nuclear hormone receptor is expressed in liver, spleen, placenta, epidermis, central nervous system. These receptors are able to form homo and heterodimers with other nuclear receptors and due to this heterodimerizing ability, RXR functions as master regulators producing diverse physiological effects. Three subtypes of RXR exist; alpha, beta and gamma. […]
# NCGC Assay Protocol Summary Using a beta-lactamase reporter-gene under control of Retinoid X receptor--alpha (RXR-alpha) response element, a cell-based assay [GeneBLAzer (RXR-alpha -UAS-bla assay developed by Invitrogen] was used to measure RXR-alpha ligands signaling. GeneBLAzer RXR-alpha -UAS-bla HEK293T cells were used with assay medium containing 2% charcoal-stripped FBS. The assay was performed in clear bottom black Greiner 1536-well plates. 9-cis-retinoic acid was used in the screen as the positive control. Library compounds were measured for their ability to stimulate the reporter gene activity. […] The fluorescence intensity (405 nm excitation, 460/530 nm emission) was measured using an EnVision plate reader. […] Detection; Fluorescence; Envision plate reader
# [2] = qHTS assay for small molecule antagonists of peroxisome proliferator-activated receptor delta signaling (AID 588535); conditions: HEK293T PPARd-UAS-bla, beta-lactamase FRET ratio, 18 h; 460 nm channel;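 note: cells co-treated with a PPAR-delta agonist as stimulator during compound exposure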
# [3] = qHTS drug screen for cell cycle checkpoint inhibitors in PARPi-resistant BRCA-mutant ovarian cancer cell lines. (AID 1963452); conditions: PEO1/OlaR viability, CellTiter-Glo luminescence, 96 h, stronger effect = lower value
# Excerpt: Women's Malignancies Branch, Center for Cancer Research (CCR),
# National Cancer Institute (NCI), National Institutes of Health (NIH), Bethesda, MD
# Poly (ADP-ribose) polymerase inhibitors (PARPis) have changed the treatment paradigm in breast cancer gene (BRCA) - mutant high-grade serous ovarian carcinoma (HGSC). However, most patients eventually develop resistance to PARPis, highlighting an unmet need for improved therapeutic strategies. Using high-throughput drug screens, we identified ataxia telangiectasia and rad3-related protein/checkpoint kinase 1 (CHK1) pathway inhibitors as cytotoxic and further validated the activity of the CHK1 inhibitor (CHK1i) prexasertib in PARPi-sensitive and -resistant BRCA-mutant HGSC cells and xenograft mouse models. CHK1i monotherapy induced DNA damage, apoptosis, and tumor size reduction. We then conducted a phase 2 study (NCT02203513) of prexasertib in patients with BRCA-mutant HGSC. The treatment was well tolerated but yielded an objective response rate of 6% (1 of 17; one partial response) in patients with previous PARPi treatment. […] BRCA reversion mutation in previously PARPi-treated BRCA-mutant patients was not associated with resistance to CHK1i. […]
# 6; Detection; Luminescence, PHERAstar (BMG Labtech) plate reader. […]
# 6. Luminescence readings were taken using PHERAstar (BMG Labtech). […]
# [4] = qHTS assay for small molecule antagonists of retinoid X receptor alpha signaling (AID 588546); conditions: HEK293T RXRa-UAS-bla, beta-lactamase ratio, antagonist mode; measured here: W530 green channel, cytotoxicity proxy;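 note: cells stimulated with 9-cis-retinoic acid as agonist; % is set by controls: 0 for no effect and ±100 for the full control effect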
# Excerpt: as §1
# NCGC Assay Protocol Summary Using a beta-lactamase reporter-gene under control of Retinoid X receptor--alpha (RXR-alpha) response element, a cell-based assay [GeneBLAzer (RXR-alpha -UAS-bla assay developed by Invitrogen] was used to measure RXR-alpha ligands signaling. GeneBLAzer RXR-alpha -UAS-bla HEK293T cells were used with assay medium containing 2% charcoal-stripped FBS. The assay was performed in clear bottom black Greiner 1536-well plates. Library compounds were measured for their ability to inhibit the reporter gene activity. Compounds were screened in a titration series in 1536-well format. The fluorescence intensity (405 nm excitation, 460/530 nm emission) was measured using an EnVision plate reader. […] Detection; Fluorescence; Envision plate reader
smiles,measurement,setting,value
NC(=O)Nc1ccc([As](=O)(O)O)cc1,max response,[1],-12.6%
Cc1c([N+](=O)[O-])cccc1[N+](=O)[O-],max response,[2],15.9%
CN(CCCl)CCCl,Z-AUC,[3]; measured here: PEO1 parental Z-AUC,0.218
same,Z-AUC,[3]; measured here: PEO4 Z-AUC,0.181
O=[N+]([O-])C(Cl)(Cl)Cl,max response,[2],20.6% and 63%
same,max response,[1],-5.5% and -18%
same,max response,[4],-12.2% and -1.32%

# From PubChem BioAssay (NCATS)
